The record followed here is publication doi:10.1101/2020.09.09.290171 (bioRxiv, 2020).

Results are given in words; binding and its absence hold for the method and conditions named. Some entries that bind do so weakly or less than the wild type. Sequences can lack the tags named with a protein.

Common to all, as to test: peptide or protein array
For test [1], the target named is RDR2 peptide 13 of the RDR2_(771-970) peptide array (Arabidopsis thaliana) (UniProt O82504).
In test [2] the target is RDR2 peptide 9 of the RDR2_(771-970) peptide array (Arabidopsis thaliana) (UniProt O82504).
Test [3] concerns the target NRPD1 peptide 12 of the NRPD1_(1-300) peptide array (Arabidopsis thaliana) (UniProt Q9LQ02).

B1: recombinant NRPD1 amino acids 1-300 fused to His and FLAG tags, expressed in E. coli (domain or fragment, UniProt Q9LQ02 1-300)
chain: MEDDCEELQVPVGTLTSIGFSISNNNDRDKMSVLEVEAPNQVTDSRLGLPNPDSVCRTCGSKDRKVCEGHFGVINFAYSIINPYFLKEVAALLNKICPGCKYIRKKQFQITEDQPERCRYCTLNTGYPLMKFRVTTKEVFRRSGIVVEVNEESLMKLKKRGVLTLPPDYWSFLPQDSNIDESCLKPTRRIITHAQVYALLLGIDQRLIKKDIPMFNSLGLTSFPVTPNGYRVTEIVHQFNGARLIFDERTRIYKKLVGFEGNTLELSSRVMECMQYSRLFSETVSSSKDSANPYQKKSDT
B1: the binding entry in test [1] and in test [2] was “no binding (tested: ~200 ng in 8 ml)” in each case.

B2: recombinant RDR2 amino acids 771-970 fused to His and HA tags, expressed in E. coli (domain or fragment, UniProt O82504 771-970)
chain: ETSVVIGKVVVTKNPCLHPGDIRVLDAIYEVHFEEKGYLDCIIFPQKGERPHPNECSGGDLDGDQFFVSWDEKIIPSEMDPPMDYAGSRPRLMDHDVTLEEIHKFFVDYMISDTLGVISTAHLVHADRDPEKARSQKCLELANLHSRAVDFAKTGAPAEMPYALKPREFPDFLERFEKPTYISESVFGKLYRAVKSSLAQ
For B2, the binding entry in test [3] is reported as “binds”.
